Reference: publication PMC7707563
Results are given in words; binding and its absence hold for the method and conditions named. For some assays here: Binding seen in cells or lysates may run through a third protein. Some binding calls cover weakened binding; strength is not graded here. Where a sequence is shown, tags or fusion partners need not be part of it. One block for each binder: values may come before it.

Sequences of proteins named here, by UniProt entry; tags and fusion partners are left off. Residues count along the entry.
UniProt Q9NPF7, residues 20-189: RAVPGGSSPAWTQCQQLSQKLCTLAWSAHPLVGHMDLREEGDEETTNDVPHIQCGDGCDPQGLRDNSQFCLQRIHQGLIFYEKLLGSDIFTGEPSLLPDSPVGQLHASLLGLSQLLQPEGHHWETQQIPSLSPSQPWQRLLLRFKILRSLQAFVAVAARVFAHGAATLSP

What was measured:
[1] = target: human IL-23 p19 (aa20-189) (human) (UniProt Q9NPF7); test: co-IP; concentrated, pre-cleared supernatants of untagged p19 and EBI3 co-transfected HEK293FT cells; anti-p19 antibody and Protein G sepharose, PBS-0.05% Tween 20, 4°C; EBI3 Western blot
[2] = target: human IL-23 p19 (aa20-189) (human) (UniProt Q9NPF7); test: ELISA; sandwich: plate coated with anti-p19 antibody, concentrated supernatants of p19 and EBI3-His transfected HEK293FT cells 2 hrs at room temperature, detection with biotinylated EBI3 antibody and HRP-Avidin

binding [1]: binds
B1: EBI3 (aa21-229), untagged (protein, UniProt Q14213 21-229)
chain: RKGPPAALTLPRVQCRASRYPIAVDCSWTLPPAPNSTSPVSFIATYRLGMAARGHSWPCLQQTPTSTSCTITDVQLFSMAPYVLNVTAVHPWGSSSSFVPFITEHIIKPDPPEGVRLSPLAERQLQVQWEPPGSWPFPEIFSLKYWIRYKRQGAARFHRVGPIEATSFILRAVRPRARYYVQVAAQDLTDYGELSDWSLPATATMSLGK

binding [2]: binds
B2: C-terminally 10 x His-tagged EBI3 (protein, UniProt Q14213 21-229)
chain: B1 chain
